The record followed here is patent US20100105882A1.

Results are given in words; binding and its absence hold for the method and conditions named. Some entries that bind do so weakly or less than the wild type. Sequences can lack the tags named with a protein.

For this assay, the target named is streptavidin HRP (UniProt P22629). Description: blot of SDS-PAGE-separated spacer modules on PVDF membrane, probed with streptavidin HRP.

B1: spacer module DsRed-long (long type mutated dynein stalk antiparallel coiled coil, DsRed with histidine tag and biotin acceptor peptide) (protein)
chain: VDQLKIKVEQLKEKVNELELENDELKAKVDNLNSKNRELDVKNEQANQKLKQLVQDVQAVRIKSQELEVKNAAANDKLKKMVKDQQEAEKKKVMSQEIQEQLHKQQEVIADKQMSVKEDLDKAEIKVKDASELQVQLDVRNKEIAVQKVKAHADLEKAEPAIIEGSGDNTEDVIKEFMQFKVRMEGSVNGHYFEIEGEGEGKPYEGTQTAKLQVTKGGPLPFAWDILSPQFQYGSKAYVKHPADIPDYMKLSFPEGFTWERSMNFEDGGVVEVQQDSSLQDGTFIYKVKFKGVNFPADGPVMQKKTAGWEPSTEKLYPQDGVLKGEISHALKLKDGSGHHHHHHHHGSGAGTPVTAPLAGTIWKVLASEGQTVAAGEVLLILEAMKMETEIRAAQAGTVRGIAVKAGDAVAVGDTLMTLAGSGSHYTCDFKTVYKAKKPVQLPGNHYVDSKLDITNHNEDYTVVEQYEHAEARHSGSQSGSEILDRIKPLREEVEQLENAANELKLKQDEIVATITALEKSIASLRNELQKLEDDAKDNQQKANEVEQMIRDLEASIARYKEEYAVLISEAQAIKADLAAVEAKVKSLKEEVATLIRETEQIKTESSKVKAQVQALEIEVKDNKTKVVQLEVEVAQLESEVKDLE
modifications: biotinylated (biotin acceptor peptide; residue not stated)
B1: the binding entry is on record as “binds”.

B2: spacer module DsRed-short (short type mutated dynein stalk antiparallel coiled coil, DsRed with histidine tag and biotin acceptor peptide) (protein)
chain: VDQLKIKVEQLKEKVNELELENDELKAKVDNLNSKNRELDVKNEQANQKLKQLVQDVQAAEIKVKDASELQVQLDVRNKEIAVQKVKAHADLEKAEPAIIEGSGDNTEDVIKEFMQFKVRMEGSVNGHYFEIEGEGEGKPYEGTQTAKLQVTKGGPLPFAWDILSPQFQYGSKAYVKHPADIPDYMKLSFPEGFTWERSMNFEDGGVVEVQQDSSLQDGTFIYKVKFKGVNFPADGPVMQKKTAGWEPSTEKLYPQDGVLKGEISHALKLKDGSGHHHHHHHHGSGAGTPVTAPLAGTIWKVLASEGQTVAAGEVLLILEAMKMETEIRAAQAGTVRGIAVKAGDAVAVGDTLMTLAGSGSHYTCDFKTVYKAKKPVQLPGNHYVDSKLDITNHNEDYTVVEQYEHAEARHSGSQSGSEILDRIKPLREEVEQLENAANELKLKQDEIVATITALEKSIASLKEEVATLIRETEQIKTESSKVKAQVQALEIEVKDNKTKVVQLEVEVAQLESEVKDLE
modifications: biotinylated (biotin acceptor peptide; residue not stated)
Turning to B2, the binding entry is on record as “binds”.
